Experimental data published in article PMC10015162.
These are yes or no findings as the source states them, for the method shown. In cells and extracts the contact can be indirect. Here binding means that the protein was enriched with, or labelled near, the bait; the list need not be complete.

Sequences of proteins named here, by UniProt entry; tags and fusion partners are left off. A change or cut given only in a name is not applied to a line headed by its entry. Residues count along the entry.
UniProt Q39011: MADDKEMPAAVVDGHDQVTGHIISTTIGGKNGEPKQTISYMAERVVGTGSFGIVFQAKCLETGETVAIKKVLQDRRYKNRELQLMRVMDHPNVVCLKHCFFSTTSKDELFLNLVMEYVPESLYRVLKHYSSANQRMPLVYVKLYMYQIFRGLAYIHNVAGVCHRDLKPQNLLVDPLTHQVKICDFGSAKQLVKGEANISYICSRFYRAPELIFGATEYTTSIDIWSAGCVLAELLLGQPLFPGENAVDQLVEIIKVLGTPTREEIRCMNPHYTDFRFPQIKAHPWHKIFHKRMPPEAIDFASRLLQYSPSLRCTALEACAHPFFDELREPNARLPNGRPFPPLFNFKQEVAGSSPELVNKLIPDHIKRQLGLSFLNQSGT
UniProt Q9SR05, residues 27-850: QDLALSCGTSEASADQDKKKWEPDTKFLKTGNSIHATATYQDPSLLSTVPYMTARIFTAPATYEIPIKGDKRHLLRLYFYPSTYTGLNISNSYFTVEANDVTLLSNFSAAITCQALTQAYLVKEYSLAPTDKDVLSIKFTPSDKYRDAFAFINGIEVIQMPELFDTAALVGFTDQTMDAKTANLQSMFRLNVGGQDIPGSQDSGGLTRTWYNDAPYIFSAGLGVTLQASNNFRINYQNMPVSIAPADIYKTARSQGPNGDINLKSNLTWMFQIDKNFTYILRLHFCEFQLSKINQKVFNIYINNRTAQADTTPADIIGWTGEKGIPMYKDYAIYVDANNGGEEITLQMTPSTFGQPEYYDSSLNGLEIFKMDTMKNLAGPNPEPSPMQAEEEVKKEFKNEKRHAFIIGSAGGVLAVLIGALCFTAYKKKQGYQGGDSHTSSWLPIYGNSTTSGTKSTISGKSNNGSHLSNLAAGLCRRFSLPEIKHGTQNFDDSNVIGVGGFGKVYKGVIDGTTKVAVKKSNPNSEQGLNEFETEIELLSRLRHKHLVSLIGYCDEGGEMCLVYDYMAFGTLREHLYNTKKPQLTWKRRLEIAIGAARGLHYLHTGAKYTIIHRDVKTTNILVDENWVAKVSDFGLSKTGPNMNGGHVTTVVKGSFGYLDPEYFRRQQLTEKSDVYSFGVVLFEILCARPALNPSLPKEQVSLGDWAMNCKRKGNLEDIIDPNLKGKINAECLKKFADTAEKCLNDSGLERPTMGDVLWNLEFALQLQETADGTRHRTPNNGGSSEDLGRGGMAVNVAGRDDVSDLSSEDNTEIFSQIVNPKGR
UniProt Q9LX66, residues 25-830: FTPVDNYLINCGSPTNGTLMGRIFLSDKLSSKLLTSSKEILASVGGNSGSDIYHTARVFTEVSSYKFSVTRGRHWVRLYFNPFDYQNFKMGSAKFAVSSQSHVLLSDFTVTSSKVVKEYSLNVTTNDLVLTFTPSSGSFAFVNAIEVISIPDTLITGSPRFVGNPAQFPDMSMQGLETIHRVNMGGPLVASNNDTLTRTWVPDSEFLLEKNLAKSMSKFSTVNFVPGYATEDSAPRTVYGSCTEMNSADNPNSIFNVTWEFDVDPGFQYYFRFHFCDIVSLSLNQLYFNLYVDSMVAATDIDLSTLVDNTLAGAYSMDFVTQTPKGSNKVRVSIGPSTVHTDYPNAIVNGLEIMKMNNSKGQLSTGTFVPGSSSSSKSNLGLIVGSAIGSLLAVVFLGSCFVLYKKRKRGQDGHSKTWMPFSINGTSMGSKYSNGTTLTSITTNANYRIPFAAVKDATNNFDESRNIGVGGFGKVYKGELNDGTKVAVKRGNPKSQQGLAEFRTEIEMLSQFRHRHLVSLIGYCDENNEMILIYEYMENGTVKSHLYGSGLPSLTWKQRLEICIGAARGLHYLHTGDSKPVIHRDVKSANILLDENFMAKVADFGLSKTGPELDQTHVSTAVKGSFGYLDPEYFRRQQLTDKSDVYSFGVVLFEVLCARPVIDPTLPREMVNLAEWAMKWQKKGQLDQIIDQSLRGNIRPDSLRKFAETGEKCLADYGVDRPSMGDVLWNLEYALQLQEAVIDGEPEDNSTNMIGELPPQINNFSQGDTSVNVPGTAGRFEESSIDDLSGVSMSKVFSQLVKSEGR
UniProt Q9C8G3: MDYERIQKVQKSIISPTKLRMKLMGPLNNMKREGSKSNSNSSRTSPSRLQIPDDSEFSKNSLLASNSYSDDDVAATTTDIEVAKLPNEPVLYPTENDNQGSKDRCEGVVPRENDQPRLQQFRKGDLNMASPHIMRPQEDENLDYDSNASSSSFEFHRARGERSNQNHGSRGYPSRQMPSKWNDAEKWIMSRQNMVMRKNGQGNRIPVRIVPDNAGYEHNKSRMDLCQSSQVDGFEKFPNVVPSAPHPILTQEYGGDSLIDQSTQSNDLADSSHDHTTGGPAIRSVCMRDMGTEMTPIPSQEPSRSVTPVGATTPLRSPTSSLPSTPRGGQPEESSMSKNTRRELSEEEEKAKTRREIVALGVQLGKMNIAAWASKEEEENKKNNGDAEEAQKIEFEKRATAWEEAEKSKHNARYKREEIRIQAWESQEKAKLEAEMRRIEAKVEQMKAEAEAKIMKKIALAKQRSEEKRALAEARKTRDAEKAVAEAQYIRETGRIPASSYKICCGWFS
UniProt F4IRZ1: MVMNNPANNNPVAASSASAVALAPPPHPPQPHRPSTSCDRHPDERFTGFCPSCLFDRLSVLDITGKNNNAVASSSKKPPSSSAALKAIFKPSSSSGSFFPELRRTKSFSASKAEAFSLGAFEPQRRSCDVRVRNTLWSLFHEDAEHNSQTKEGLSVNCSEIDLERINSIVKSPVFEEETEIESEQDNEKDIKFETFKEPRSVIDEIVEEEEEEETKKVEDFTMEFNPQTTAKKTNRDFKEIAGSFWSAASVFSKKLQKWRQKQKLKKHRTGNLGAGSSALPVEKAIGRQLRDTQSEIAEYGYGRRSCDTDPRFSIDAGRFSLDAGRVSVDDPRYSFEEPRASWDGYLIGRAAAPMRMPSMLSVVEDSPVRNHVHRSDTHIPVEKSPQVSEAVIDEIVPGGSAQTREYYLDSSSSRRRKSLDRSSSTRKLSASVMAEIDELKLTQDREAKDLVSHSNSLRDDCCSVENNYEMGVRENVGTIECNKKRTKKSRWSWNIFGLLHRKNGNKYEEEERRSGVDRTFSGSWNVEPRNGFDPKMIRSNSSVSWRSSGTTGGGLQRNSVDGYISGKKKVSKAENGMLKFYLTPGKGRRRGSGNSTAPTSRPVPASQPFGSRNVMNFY
UniProt O65655: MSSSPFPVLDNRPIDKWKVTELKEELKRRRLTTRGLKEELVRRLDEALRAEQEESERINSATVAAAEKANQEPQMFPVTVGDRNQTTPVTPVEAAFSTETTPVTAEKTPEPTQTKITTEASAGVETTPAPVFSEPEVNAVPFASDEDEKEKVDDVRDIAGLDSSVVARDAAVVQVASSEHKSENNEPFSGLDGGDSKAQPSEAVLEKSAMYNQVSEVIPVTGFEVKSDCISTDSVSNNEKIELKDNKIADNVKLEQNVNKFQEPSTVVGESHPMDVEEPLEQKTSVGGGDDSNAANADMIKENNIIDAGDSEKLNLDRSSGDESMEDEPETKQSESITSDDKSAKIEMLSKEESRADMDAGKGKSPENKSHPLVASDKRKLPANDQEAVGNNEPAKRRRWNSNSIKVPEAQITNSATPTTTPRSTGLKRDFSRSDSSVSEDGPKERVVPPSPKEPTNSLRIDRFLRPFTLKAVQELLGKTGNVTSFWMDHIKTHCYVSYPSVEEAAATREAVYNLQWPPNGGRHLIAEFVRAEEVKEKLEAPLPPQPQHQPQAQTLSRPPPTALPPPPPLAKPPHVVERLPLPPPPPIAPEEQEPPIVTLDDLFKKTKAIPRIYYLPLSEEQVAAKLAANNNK
UniProt P93025: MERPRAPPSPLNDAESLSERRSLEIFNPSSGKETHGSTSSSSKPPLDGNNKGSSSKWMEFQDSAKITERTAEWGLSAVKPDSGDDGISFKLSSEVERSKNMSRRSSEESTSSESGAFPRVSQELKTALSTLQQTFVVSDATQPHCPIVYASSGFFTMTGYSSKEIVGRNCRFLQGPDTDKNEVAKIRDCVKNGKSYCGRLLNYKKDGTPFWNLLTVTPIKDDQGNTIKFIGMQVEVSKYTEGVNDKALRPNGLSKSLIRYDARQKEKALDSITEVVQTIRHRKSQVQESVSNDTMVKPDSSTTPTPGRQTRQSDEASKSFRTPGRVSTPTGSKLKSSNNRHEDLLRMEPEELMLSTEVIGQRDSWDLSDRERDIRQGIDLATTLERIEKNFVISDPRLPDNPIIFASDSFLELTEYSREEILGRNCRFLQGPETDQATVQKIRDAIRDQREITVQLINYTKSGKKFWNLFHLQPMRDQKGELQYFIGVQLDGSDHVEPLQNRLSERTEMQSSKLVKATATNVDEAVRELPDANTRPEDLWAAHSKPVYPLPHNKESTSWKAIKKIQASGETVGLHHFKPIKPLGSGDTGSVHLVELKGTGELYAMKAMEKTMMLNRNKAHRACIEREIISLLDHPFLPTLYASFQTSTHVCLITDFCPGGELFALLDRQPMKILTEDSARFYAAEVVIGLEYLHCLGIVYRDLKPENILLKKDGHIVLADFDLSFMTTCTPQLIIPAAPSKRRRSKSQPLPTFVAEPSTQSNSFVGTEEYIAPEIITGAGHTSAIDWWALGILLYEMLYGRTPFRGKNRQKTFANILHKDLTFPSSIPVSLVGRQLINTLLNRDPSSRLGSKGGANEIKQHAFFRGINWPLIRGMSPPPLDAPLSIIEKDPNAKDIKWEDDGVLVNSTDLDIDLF
UniProt Q3E8W4, residues 28-858: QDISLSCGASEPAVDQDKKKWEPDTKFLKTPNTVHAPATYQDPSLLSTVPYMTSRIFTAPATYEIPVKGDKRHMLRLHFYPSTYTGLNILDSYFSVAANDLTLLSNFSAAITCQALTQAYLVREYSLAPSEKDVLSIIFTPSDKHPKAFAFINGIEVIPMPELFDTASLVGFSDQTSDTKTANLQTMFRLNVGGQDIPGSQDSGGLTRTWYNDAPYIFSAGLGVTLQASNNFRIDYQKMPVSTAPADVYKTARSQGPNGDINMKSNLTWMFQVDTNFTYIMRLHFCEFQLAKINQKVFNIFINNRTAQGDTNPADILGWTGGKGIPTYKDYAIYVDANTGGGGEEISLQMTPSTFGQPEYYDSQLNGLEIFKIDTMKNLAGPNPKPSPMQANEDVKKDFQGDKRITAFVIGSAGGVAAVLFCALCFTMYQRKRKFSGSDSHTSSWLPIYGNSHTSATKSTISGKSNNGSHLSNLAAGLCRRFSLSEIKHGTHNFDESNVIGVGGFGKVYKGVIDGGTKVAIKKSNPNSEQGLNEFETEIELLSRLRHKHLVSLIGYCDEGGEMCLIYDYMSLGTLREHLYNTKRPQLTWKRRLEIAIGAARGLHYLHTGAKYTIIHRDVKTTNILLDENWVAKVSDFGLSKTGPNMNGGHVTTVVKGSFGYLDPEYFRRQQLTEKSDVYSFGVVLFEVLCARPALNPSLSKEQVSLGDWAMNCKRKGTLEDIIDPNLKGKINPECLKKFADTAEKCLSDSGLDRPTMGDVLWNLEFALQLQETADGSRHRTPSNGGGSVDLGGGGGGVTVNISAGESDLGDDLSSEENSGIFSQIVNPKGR

B1: TOPLESS (protein, UniProt Q94AI7 1-1131)
chain: MSSLSRELVFLILQFLDEEKFKETVHKLEQESGFFFNMKYFEDEVHNGNWDEVEKYLSGFTKVDDNRYSMKIFFEIRKQKYLEALDKHDRPKAVDILVKDLKVFSTFNEELFKEITQLLTLENFRENEQLSKYGDTKSARAIMLVELKKLIEANPLFRDKLQFPTLRNSRLRTLINQSLNWQHQLCKNPRPNPDIKTLFVDHSCGPPNGARAPSPVNNPLLGGIPKAGGFPPLGAHGPFQPTASPVPTPLAGWMSSPSSVPHPAVSAGAIALGGPSIPAALKHPRTPPTNASLDYPSADSEHVSKRTRPMGISDEVNLGVNMLPMSFSGQAHGHSPAFKAPDDLPKTVARTLSQGSSPMSMDFHPIKQTLLLVGTNVGDIGLWEVGSRERLVQKTFKVWDLSKCSMPLQAALVKEPVVSVNRVIWSPDGSLFGVAYSRHIVQLYSYHGGEDMRQHLEIDAHVGGVNDISFSTPNKQLCVITCGDDKTIKVWDAATGVKRHTFEGHEAPVYSVCPHYKENIQFIFSTALDGKIKAWLYDNMGSRVDYDAPGRWCTTMAYSADGTRLFSCGTSKDGESFIVEWNESEGAVKRTYQGFHKRSLGVVQFDTTKNRYLAAGDDFSIKFWDMDAVQLLTAIDGDGGLQASPRIRFNKEGSLLAVSGNENVIKIMANSDGLRLLHTFENISSESSKPAINSIAAAAAAAATSAGHADRSANVVSIQGMNGDSRNMVDVKPVITEESNDKSKIWKLTEVSEPSQCRSLRLPENLRVAKISRLIFTNSGNAILALASNAIHLLWKWQRNERNATGKATASLPPQQWQPASGILMTNDVAETNPEEAVPCFALSKNDSYVMSASGGKISLFNMMTFKTMATFMPPPPAATFLAFHPQDNNIIAIGMDDSTIQIYNVRVDEVKSKLKGHSKRITGLAFSNVLNVLVSSGADAQLCVWNTDGWEKQRSKVLPLPQGRPNSAPSDTRVQFHQDQAHFLVVHETQLAIYETTKLECMKQWAVRESLAPITHATFSCDSQLVYASFMDATVCVFSSANLRLRCRVNPSAYLPASLSNSNVHPLVIAAHPQEPNMFAVGLSDGGVHIFEPLESEGKWGVAPPAENGSASGAPTAPSVGASASDQPQR
B2: CELLULOSE SYNTHASE 3 (protein, UniProt Q941L0 1-1065)
chain: MESEGETAGKPMKNIVPQTCQICSDNVGKTVDGDRFVACDICSFPVCRPCYEYERKDGNQSCPQCKTRYKRLKGSPAIPGDKDEDGLADEGTVEFNYPQKEKISERMLGWHLTRGKGEEMGEPQYDKEVSHNHLPRLTSRQDTSGEFSAASPERLSVSSTIAGGKRLPYSSDVNQSPNRRIVDPVGLGNVAWKERVDGWKMKQEKNTGPVSTQAASERGGVDIDASTDILADEALLNDEARQPLSRKVSIPSSRINPYRMVIMLRLVILCLFLHYRITNPVPNAFALWLVSVICEIWFALSWILDQFPKWFPVNRETYLDRLALRYDREGEPSQLAAVDIFVSTVDPLKEPPLVTANTVLSILAVDYPVDKVSCYVSDDGAAMLSFESLAETSEFARKWVPFCKKYSIEPRAPEWYFAAKIDYLKDKVQTSFVKDRRAMKREYEEFKIRINALVSKALKCPEEGWVMQDGTPWPGNNTRDHPGMIQVFLGQNGGLDAEGNELPRLVYVSREKRPGFQHHKKAGAMNALVRVSAVLTNGPFILNLDCDHYINNSKALREAMCFLMDPNLGKQVCYVQFPQRFDGIDKNDRYANRNTVFFDINLRGLDGIQGPVYVGTGCVFNRTALYGYEPPIKVKHKKPSLLSKLCGGSRKKNSKAKKESDKKKSGRHTDSTVPVFNLDDIEEGVEGAGFDDEKALLMSQMSLEKRFGQSAVFVASTLMENGGVPPSATPENLLKEAIHVISCGYEDKSDWGMEIGWIYGSVTEDILTGFKMHARGWRSIYCMPKLPAFKGSAPINLSDRLNQVLRWALGSVEILFSRHCPIWYGYNGRLKFLERFAYVNTTIYPITSIPLLMYCTLPAVCLFTNQFIIPQISNIASIWFLSLFLSIFATGILEMRWSGVGIDEWWRNEQFWVIGGVSAHLFAVFQGILKVLAGIDTNFTVTSKASDEDGDFAELYLFKWTTLLIPPTTLLIVNLVGVVAGVSYAINSGYQSWGPLFGKLFFAFWVIVHLYPFLKGLMGRQNRTPTIVVVWSVLLASIFSLLWVRIDPFTSRVTGPDILECGINC
B3: MAPK kinase kinase YODA (protein, UniProt Q9CAD5 1-883)
chain: MPWWSKSKDEKKKTNKESIIDAFNRKLGFASEDRSSGRSRKSRRRRDEIVSERGAISRLPSRSPSPSTRVSRCQSFAERSPAVPLPRPIVRPHVTSTDSGMNGSQRPGLDANLKPSWLPLPKPHGATSIPDNTGAEPDFATASVSSGSSVGDIPSDSLLSPLASDCENGNRTPVNISSRDQSMHSNKNSAEMFKPVPNKNRILSASPRRRPLGTHVKNLQIPQRDLVLCSAPDSLLSSPSRSPMRSFIPDQVSNHGLLISKPYSDVSLLGSGQCSSPGSGYNSGNNSIGGDMATQLFWPQSRCSPECSPVPSPRMTSPGPSSRIQSGAVTPLHPRAGGSTTGSPTRRLDDNRQQSHRLPLPPLLISNTCPFSPTYSAATSPSVPRSPARAEATVSPGSRWKKGRLLGMGSFGHVYLGFNSESGEMCAMKEVTLCSDDPKSRESAQQLGQEISVLSRLRHQNIVQYYGSETVDDKLYIYLEYVSGGSIYKLLQEYGQFGENAIRNYTQQILSGLAYLHAKNTVHRDIKGANILVDPHGRVKVADFGMAKHITAQSGPLSFKGSPYWMAPEVIKNSNGSNLAVDIWSLGCTVLEMATTKPPWSQYEGVPAMFKIGNSKELPDIPDHLSEEGKDFVRKCLQRNPANRPTAAQLLDHAFVRNVMPMERPIVSGEPAEAMNVASSTMRSLDIGHARSLPCLDSEDATNYQQKGLKHGSGFSISQSPRNMSCPISPVGSPIFHSHSPHISGRRSPSPISSPHALSGSSTPLTGCGGAIPFHHQRQTTVNFLHEGIGSSRSPGSGGNFYTNSFFQEPSRQQDRSRSSPRTPPHVFWDNNGSIQPGYNWNKDNQPVLSDHVSQQLLSEHLKLKSLDLRPGFSTPGSTNRGP
B4: PIN-FORMED 3 (protein, UniProt Q9S7Z8 1-640)
chain: MISWHDLYTVLTAVIPLYVAMILAYGSVRWWKIFSPDQCSGINRFVAIFAVPLLSFHFISTNNPYAMNLRFIAADTLQKIIMLSLLVLWANFTRSGSLEWSITIFSLSTLPNTLVMGIPLLIAMYGEYSGSLMVQIVVLQCIIWYTLLLFLFEFRGAKMLIMEQFPETAASIVSFKVESDVVSLDGHDFLETDAEIGDDGKLHVTVRKSNASRRSFCGPNMTPRPSNLTGAEIYSLSTTPRGSNFNHSDFYNMMGFPGGRLSNFGPADMYSVQSSRGPTPRPSNFEENCAMASSPRFGYYPGGGAGSYPAPNPEFSSTTTSTANKSVNKNPKDVNTNQQTTLPTGGKSNSHDAKELHMFVWSSNGSPVSDRAGLNVFGGAPDNDQGGRSDQGAKEIRMLVPDQSHNGETKAVAHPASGDFGGEQQFSFAGKEEEAERPKDAENGLNKLAPNSTAALQSKTGLGGAEASQRKNMPPASVMTRLILIMVWRKLIRNPNTYSSLIGLIWALVAFRWHVAMPKIIQQSISILSDAGLGMAMFSLGLFMALQPKLIACGNSVATFAMAVRFLTGPAVMAVAAIAIGLRGDLLRVAIVQAALPQGIVPFVFAKEYNVHPAILSTGVIFGMLIALPITLVYYILLGL
B5: PIN-FORMED 4 (protein, UniProt Q8RWZ6 1-616)
chain: MITWHDLYTVLTAVVPLYVAMILAYGSVQWWKIFSPDQCSGINRFVAIFAVPLLSFHFISTNDPYAMNFRFVAADTLQKIIMLVLLALWANLTKNGSLEWMITIFSLSTLPNTLVMGIPLLIAMYGTYAGSLMVQVVVLQCIIWYTLLLFLFEYRGAKLLIMEQFPETGASIVSFKVESDVVSLDGHDFLETDAEIGNDGKLHVTVRKSNASRRSLMMTPRPSNLTGAEIYSLSSTPRGSNFNHSDFYSVMGFPGGRLSNFGPADLYSVQSSRGPTPRPSNFEENNAVKYGFYNNTNSSVPAAGSYPAPNPEFSTGTGVSTKPNKIPKENQQQLQEKDSKASHDAKELHMFVWSSSASPVSDVFGGGAGDNVATEQSEQGAKEIRMVVSDQPRKSNARGGGDDIGGLDSGEGEREIEKATAGLNKMGSNSTAELEAAGGDGGGNNGTHMPPTSVMTRLILIMVWRKLIRNPNTYSSLIGLIWALVAYRWHVAMPKILQQSISILSDAGLGMAMFSLGLFMALQPKIIACGNSVATFAMAVRFITGPAIMAVAGIAIGLHGDLLRIAIVQAALPQGIVPFVFAKEYNVHPTILSTGVIFGMLIALPITLVYYILLGL
B6: PIN-FORMED 7 (protein, UniProt Q940Y5 1-619)
chain: MITWHDLYTVLTAVIPLYVAMILAYGSVRWWKIFSPDQCSGINRFVAIFAVPLLSFHFISSNNPYAMNLRFIAADTLQKLIMLTLLIIWANFTRSGSLEWSITIFSLSTLPNTLVMGIPLLIAMYGEYSGSLMVQIVVLQCIIWYTLLLFLFEYRGAKILIMEQFPETGASIVSFKVESDVVSLDGHDFLETDAQIGDDGKLHVTVRKSNASRRSFYGGGGTNMTPRPSNLTGAEIYSLNTTPRGSNFNHSDFYSMMGFPGGRLSNFGPADMYSVQSSRGPTPRPSNFEESCAMASSPRFGYYPGGAPGSYPAPNPEFSTGNKTGSKAPKENHHHVGKSNSNDAKELHMFVWGSNGSPVSDRAGLQVDNGANEQVGKSDQGGAKEIRMLISDHTQNGENKAGPMNGDYGGEEESERVKEVPNGLHKLRCNSTAELNPKEAIETGETVPVKHMPPASVMTRLILIMVWRKLIRNPNTYSSLIGLIWALVAFRWDVAMPKIIQQSISILSDAGLGMAMFSLGLFMALQPKLIACGNSTATFAMAVRFFTGPAVMAVAAMAIGLRGDLLRVAIVQAALPQGIVPFVFAKEYNVHPAILSTGVIFGMLIALPITLVYYILLGL

The molecules below were run against BIN2-YFP-TbID (full-length BIN2 fused with YFP and TurboID), in transgenic Arabidopsis (Arabidopsis thaliana) (UniProt Q39011) (assay: proximity labelling; TbPL-MS: transgenic Arabidopsis seedlings with BIN2-YFP-TbID against YFP-YFP-TbID control, 14N/15N labelling, 50 µM biotin for 3 h, desalting, streptavidin beads, on-bead digestion, LC-MS/MS; BIN2-proximal: ratio >=3 in at least three of four replicates).

Molecule	binding
ANXUR1 receptor kinase (from UniProt Q9SR05 27-850)	binds
BRASSINOSTEROID-… KINASE3 (from UniProt Q8W4L3 1-489)	binds
HERCULES (HERK1) receptor kinase (from UniProt Q9LX66 25-830)	binds
At1g30320 (from UniProt Q9C8G3)	binds
OCTOPUS LIKE 2 (from UniProt F4IRZ1)	binds
ACINUS (from UniProt O65655)	binds
SUGAR … 8 (mitogen-activated protein kinase kinase kinase) (from UniProt Q9C9U5 1-1030) (enzyme)	binds
phototropin 2 (from UniProt P93025 1-915)	binds
ANX2 receptor kinase (from UniProt Q3E8W4 28-858)	binds
B1	binds
B2	binds
B3	binds
B4	binds
B5	binds
B6	binds
